PubChem BioAssay AID743121 | NCATS, 2013

Aim: 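Genes whose silencing strengthens cell killing by camptothecin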 (primary screen)
Cell system: MDA-MB-231 cells, a human breast cancer line
Knock-down reagent: single siRNA against human genes, 20 nM siRNA (0.8 pmol per well)
Time to read-out: 120 h (drug added 48 h after transfection, read 72 h later)
Conditions: camptothecin 20 nM (about EC30) for 72 h; vehicle 0.1% DMSO in parallel plates
Read-out: 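CellTiter-Glo ATP signal, scaled to control siRNA as percent viability; sensitisation given as log2 of untreated divided by camptothecin-treated viability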
Reading the numbers: log2 vehicle/camptothecin viability: higher = stronger sensitisation to camptothecin; viability with camptothecin and viability without drug: higher = more viable cells
Hit rule: 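Active genes have an RSA gene-level p-value below 0.001, computed from the ratios of their separate siRNAs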
The deposit covers about 26,000 reagents; shown is a part drawn at random. 167 of them (0.63%) count as active. 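Calls are per gene from RSA p-values that are not deposited; an individual active-marked siRNA can sensitise only weakly.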 Reagents against one gene are numbered here.

| log2 vehicle/camptothecin viability | viability with camptothecin (% of control) | viability without drug (% of control) | Call | gene symbol | reagent |
| --- | --- | --- | --- | --- | --- |
| 0.0728 | 87.5 | 92 | inactive | COPS2 (COP9 signalosome subunit 2) | 1 |
| 0.965 | 34.2 | 66.7 | inactive | COPS2 (COP9 signalosome subunit 2) | 2 |
| 0.0837 | 76.9 | 81.5 | inactive | COPS2 (COP9 signalosome subunit 2) | 3 |
| 0.761 | 25.9 | 43.9 | inactive | COPS2 (COP9 signalosome subunit 2) | 4 |
| -0.161 | 90.2 | 80.7 | inactive | PDK2 (pyruvate dehydrogenase kinase 2) | 1 |
| -0.538 | 101 | 69.8 | inactive | PDK2 (pyruvate dehydrogenase kinase 2) | 2 |
| 0.541 | 42.3 | 61.6 | inactive | PDK2 (pyruvate dehydrogenase kinase 2) | 3 |
| -0.396 | 50.8 | 38.6 | inactive | PDK2 (pyruvate dehydrogenase kinase 2) | 4 |
| -0.626 | 54.4 | 35.3 | inactive | NOS2 (nitric oxide synthase 2) | 1 |
| 0.169 | 47.1 | 52.9 | inactive | NOS2 (nitric oxide synthase 2) | 2 |
| -0.175 | 106 | 93.7 | inactive | NOS2 (nitric oxide synthase 2) | 3 |
| -0.453 | 66.1 | 48.3 | inactive | NOS2 (nitric oxide synthase 2) | 4 |
| -0.22 | 87.9 | 75.5 | inactive | ROCK2 (Rho associated coiled-coil containing protein kinase 2) | 1 |
| -0.47 | 75.5 | 54.5 | inactive | ROCK2 (Rho associated coiled-coil containing protein kinase 2) | 2 |
| -0.13 | 102 | 92.9 | inactive | ROCK2 (Rho associated coiled-coil containing protein kinase 2) | 3 |
| 0.241 | 38 | 44.9 | inactive | ROCK2 (Rho associated coiled-coil containing protein kinase 2) | 4 |
| -0.443 | 56.3 | 41.4 | inactive | PRND (prion like protein doppel) | 1 |
| -0.657 | 25.1 | 15.9 | inactive | PRND (prion like protein doppel) | 2 |
| 0.0804 | 61.1 | 64.6 | inactive | PRND (prion like protein doppel) | 3 |
| -0.389 | 117 | 89.4 | inactive | PRND (prion like protein doppel) | 4 |
| -0.388 | 66.3 | 50.7 | inactive | GRAP2 (GRB2 related adaptor protein 2) | 1 |
| -0.22 | 105 | 90.4 | inactive | GRAP2 (GRB2 related adaptor protein 2) | 2 |
| -0.545 | 52.1 | 35.7 | inactive | GRAP2 (GRB2 related adaptor protein 2) | 3 |
| -0.351 | 86.9 | 68.2 | inactive | GRAP2 (GRB2 related adaptor protein 2) | 4 |
| -0.434 | 56.5 | 41.8 | inactive | COQ5 (coenzyme Q5, methyltransferase) | 1 |
| -0.251 | 84.7 | 71.2 | inactive | COQ5 (coenzyme Q5, methyltransferase) | 2 |
| -0.101 | 95.2 | 88.7 | inactive | COQ5 (coenzyme Q5, methyltransferase) | 3 |
| -0.313 | 87.4 | 70.3 | inactive | COQ5 (coenzyme Q5, methyltransferase) | 4 |

The list goes on (9 carried over from the part before).
| log2 vehicle/camptothecin viability | viability with camptothecin (% of control) | viability without drug (% of control) | Call | gene symbol | reagent |
| --- | --- | --- | --- | --- | --- |
| -0.389 | 117 | 89.4 | inactive | PRND (prion like protein doppel) | 4 |
| -0.388 | 66.3 | 50.7 | inactive | GRAP2 (GRB2 related adaptor protein 2) | 1 |
| -0.22 | 105 | 90.4 | inactive | GRAP2 (GRB2 related adaptor protein 2) | 2 |
| -0.545 | 52.1 | 35.7 | inactive | GRAP2 (GRB2 related adaptor protein 2) | 3 |
| -0.351 | 86.9 | 68.2 | inactive | GRAP2 (GRB2 related adaptor protein 2) | 4 |
| -0.434 | 56.5 | 41.8 | inactive | COQ5 (coenzyme Q5, methyltransferase) | 1 |
| -0.251 | 84.7 | 71.2 | inactive | COQ5 (coenzyme Q5, methyltransferase) | 2 |
| -0.101 | 95.2 | 88.7 | inactive | COQ5 (coenzyme Q5, methyltransferase) | 3 |
| -0.313 | 87.4 | 70.3 | inactive | COQ5 (coenzyme Q5, methyltransferase) | 4 |
| -0.171 | 77.7 | 69 | inactive | MYH7B (myosin heavy chain 7B) | 1 |
| -0.236 | 109 | 92.4 | inactive | MYH7B (myosin heavy chain 7B) | 2 |
| -0.29 | 89.6 | 73.3 | inactive | MYH7B (myosin heavy chain 7B) | 3 |
| 0.406 | 40 | 53.1 | inactive | MYH7B (myosin heavy chain 7B) | 4 |
| -0.143 | 106 | 95.6 | inactive | CRLF3 (cytokine receptor like factor 3) | 1 |
| -0.364 | 46.6 | 36.2 | inactive | CRLF3 (cytokine receptor like factor 3) | 2 |
| -0.347 | 107 | 83.9 | inactive | CRLF3 (cytokine receptor like factor 3) | 3 |
| 0.0484 | 95.4 | 98.7 | inactive | RFWD3 (ring finger and WD repeat domain 3) | 1 |
| -0.531 | 75.9 | 52.6 | inactive | RFWD3 (ring finger and WD repeat domain 3) | 2 |
| -0.303 | 92.6 | 75 | inactive | RFWD3 (ring finger and WD repeat domain 3) | 3 |
| 1.15 | 28.3 | 62.9 | inactive | RFWD3 (ring finger and WD repeat domain 3) | 4 |
| -0.0967 | 73 | 68.3 | inactive | EZR (ezrin) | 1 |
| -0.243 | 86.7 | 73.2 | inactive | EZR (ezrin) | 2 |
| -0.179 | 72 | 63.6 | inactive | EZR (ezrin) | 3 |
| 0.2 | 104 | 120 | inactive | MMP12 (matrix metallopeptidase 12) | 1 |
| 0.00609 | 84.7 | 85.1 | inactive | MMP12 (matrix metallopeptidase 12) | 2 |
| 0.0553 | 106 | 111 | inactive | MMP12 (matrix metallopeptidase 12) | 3 |
| 0.322 | 73.1 | 91.5 | inactive | MMP12 (matrix metallopeptidase 12) | 4 |
| 0.0272 | 110 | 112 | inactive | CLK4 (CDC like kinase 4) | 1 |
| 0.444 | 36.7 | 49.9 | inactive | CLK4 (CDC like kinase 4) | 2 |
| -0.223 | 92.2 | 79 | inactive | CLK4 (CDC like kinase 4) | 3 |
| -0.532 | 33.9 | 23.4 | inactive | CLK4 (CDC like kinase 4) | 4 |
| -0.117 | 39.2 | 36.2 | inactive | IL17D (interleukin 17D) | 1 |
| 0.0188 | 55.7 | 56.5 | inactive | IL17D (interleukin 17D) | 2 |
| -0.237 | 56.8 | 48.1 | inactive | IL17D (interleukin 17D) | 3 |
| -0.292 | 83.8 | 68.4 | inactive | IL17D (interleukin 17D) | 4 |
| 0.888 | 18.5 | 34.2 | inactive | DCC (DCC netrin 1 receptor) | 1 |
| -0.495 | 91.9 | 65.2 | inactive | DCC (DCC netrin 1 receptor) | 2 |
| -0.38 | 92.7 | 71.3 | inactive | DCC (DCC netrin 1 receptor) | 3 |
| -0.493 | 124 | 88 | inactive | DCC (DCC netrin 1 receptor) | 4 |
| -0.477 | 35.2 | 25.3 | inactive | HIP1 (huntingtin interacting protein 1) | 1 |
| 0.401 | 32.5 | 42.9 | inactive | HIP1 (huntingtin interacting protein 1) | 2 |
| -0.285 | 72.7 | 59.6 | inactive | HIP1 (huntingtin interacting protein 1) | 3 |
| -0.189 | 45.6 | 40 | inactive | HIP1 (huntingtin interacting protein 1) | 4 |
| 0.115 | 87.3 | 94.6 | inactive | AHCYL2 (adenosylhomocysteinase like 2) | 1 |
| -0.156 | 87.7 | 78.7 | inactive | AHCYL2 (adenosylhomocysteinase like 2) | 2 |
| -0.613 | 111 | 72.3 | inactive | AHCYL2 (adenosylhomocysteinase like 2) | 3 |
| -0.118 | 76.7 | 70.7 | inactive | CAPN15 (calpain 15) | 1 |
| -0.711 | 68.9 | 42.1 | inactive | CAPN15 (calpain 15) | 2 |
| -0.465 | 54.6 | 39.5 | inactive | CAPN15 (calpain 15) | 3 |
| -0.267 | 78.4 | 65.2 | inactive | CAPN15 (calpain 15) | 4 |
